No constants are given. Whether binding was seen depends on the method and setting. Binding seen in cells or lysates may run through a third protein. Here binding means that the protein was enriched with, or labelled near, the bait; the list need not be complete.
Target: activating transcription factor 3 (ATF3), endogenous in VSMCs (mouse (endogenous in VSMCs))
Assay: affinity purification with mass spectrometry; immunoprecipitation with ATF3 antibody against IgG control, mass spectrometry of the precipitate; cells not named for this experiment

B1: autophagy-related 7 (ATG7), endogenous in VSMCs (protein, UniProt Q9D906 1-698)
chain: MGDPGLAKLQFAPFNSALDVGFWHELTQKKLNEYRLDEAPKDIKGYYYNGDSAGLPTRLTLEFSAFDMSASTPAHCCPAMGTLHNTNTLEAFKTADKKLLLEQSANEIWEAIKSGAALENPMLLNKFLLLTFADLKKYHFYYWFCCPALCLPESIPLIRGPVSLDQRLSPKQIQALEHAYDDLCRAEGVTALPYFLFKYDDDTVLVSLLKHYSDFFQGQRTKITVGVYDPCNLAQYPGWPLRNFLVLAAHRWSGSFQSVEVLCFRDRTMQGARDVTHSIIFEVKLPEMAFSPDCPKAVGWEKNQKGGMGPRMVNLSGCMDPKRLAESSVDLNLKLMCWRLVPTLDLDKVVSVKCLLLGAGTLGCNVARTLMGWGVRHVTFVDNAKISYSNPVRQPLYEFEDCLGGGKPKALAAAERLQKIFPGVNARGFNMSIPMPGHPVNFSDVTMEQARRDVEQLEQLIDNHDVIFLLMDTRESRWLPTVIAASKRKLVINAALGFDTFVVMRHGLKKPKQQGAGDLCPSHLVAPADLGSSLFANIPGYKLGCYFCNDVVAPGDSTRDRTLDQQCTVSRPGLAVIAGALAVELMVSVLQHPEGGYAIASSSDDRMNEPPTSLGLVPHQIRGFLSRFDNVLPVSLAFDKCTACSPKVLDQYEREGFTFLAKVFNSSHSFLEDLTGLTLLHQETQAAEIWDMSDEETV
binding: binds

From article PMC12499416, “ATF3 Deficiency Exacerbates Ageing‐Induced Atherosclerosis and Clinical Intervention Strategy” (Advanced Science, 2025)
